PubChem BioAssay AID1159584 – Peter MacCallum Cancer Centre – 2016
The deposit covers about 18,000 reagents; this is a part drawn at random. Not stated in the record: the amount of reagent, the time to read-out.

- Assay: 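Genes that CDH1-null MCF10A cells selectively depend on to survive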 (primary screen)
- Cells: human MCF10A breast epithelial cells, parental and CDH1-null
- Knock-down reagent: siRNA against human genes
- Measurement: 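Cell viability by CellTiter-Glo ATP luminescence, each line scaled to the mean of mock wells across plates, then CDH1-null over parental ratio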
- Reading the numbers: CDH1-null / parental viability ratio: higher = CDH1-null cells survive relatively better than parental; CDH1-null viability vs mock: higher = more viable CDH1-null cells; parental viability vs mock: higher = more viable parental cells

Target gene	PubChem SID	CDH1-null / parental viability ratio	CDH1-null viability vs mock (fraction of mock)	parental viability vs mock (fraction of mock)
CEP170	SID135624161	0.94	0.92	0.98
MAB21L3	SID134320814	0.87	0.48	0.55
DCD	SID152151910	0.85	0.53	0.62
OR6X1	SID152154541	0.95	0.76	0.8
NAALAD2	SID152153695	1.25	0.9	0.72
TPPP2	SID135623390	1.01	0.68	0.67
TOB1	SID134315059	1.08	1	0.93
OR5D14	SID135624588	1.19	0.92	0.77
SYN3	SID152152234	1.22	0.9	0.74
CT47A4	SID135625660	1.07	0.6	0.56
RS1	SID152153757	1.09	0.87	0.8
COX18	SID152149630	0.91	0.75	0.82
UBE2J1	SID135621341	1	0.86	0.86
DDX52	SID134317019	0.96	0.9	0.94
GPR151	SID152149689	0.78	0.79	1.01

Just “CDH1-null / parental viability ratio”, for 2 of the entries above:
CEP170 [SID135624161] = 0.94
MAB21L3 [SID134320814] = 0.87

The list goes on:
Target gene	PubChem SID	CDH1-null / parental viability ratio	CDH1-null viability vs mock (fraction of mock)	parental viability vs mock (fraction of mock)
GLIPR1L1	SID152146888	1.29	1.32	1.02
ASL	SID152155959	1.01	0.88	0.87
NLRP8	SID134323257	1.08	1	0.93
PPIAL4A	SID134314596	1.05	1.23	1.17
DLG3	SID135621778	0.93	0.9	0.97
TNFAIP8	SID152146879	0.89	0.57	0.64
CHST15	SID152152619	1.13	1.04	0.92
FADS6	SID152152297	0.76	0.58	0.76
NR5A1	SID134309880	0.95	0.7	0.74
PCDH17	SID135622332	0.94	0.73	0.78
ASB14	SID135622478	0.88	0.6	0.68
PPM1L	SID152150203	1.3	1	0.77
HAVCR1	SID135623853	1.38	1.5	1.09
